Binding data for 1 molecule are collected here from paper PMC3422339.

Sequences of proteins named here, by UniProt entry; tags and fusion partners are left off. A change or cut given only in a name is not applied to a line headed by its entry.
UniProt Q84W66: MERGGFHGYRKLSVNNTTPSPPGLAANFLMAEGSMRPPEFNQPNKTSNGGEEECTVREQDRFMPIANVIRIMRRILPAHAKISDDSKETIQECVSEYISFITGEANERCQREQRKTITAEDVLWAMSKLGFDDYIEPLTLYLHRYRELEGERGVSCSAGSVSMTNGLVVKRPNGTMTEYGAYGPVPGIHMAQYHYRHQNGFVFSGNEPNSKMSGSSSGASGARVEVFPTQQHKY

Results are given in words; binding and its absence hold for the method and conditions named. In cells and extracts the contact can be indirect. Binding calls can cover weak binding; strength is not graded here. Sequences can lack the tags named with a protein.

In the assay the target is 6His-L1L/AtNF-YB6 HFD (AA 26-118) (Arabidopsis thaliana) (UniProt Q84W66). Briefly: pull-down; co-expression of the HFDs in E. coli BL21(DE3); Ni-chelate affinity co-purification from the soluble extract by the 6His tag of the AtNF-YB; buffer A (10 mM Tris pH 8.0, 400 mM NaCl, 2 mM MgCl2, 5 mM imidazole), eluted with 100 mM imidazole; SDS-PAGE, Coomassie.

B1: AtNF-YC3 HFD (AA 55-148), untagged (domain or fragment, UniProt Q9ZVL3 55-148)
chain: TQFKEIEKTTDFKNHSLPLARIKKIMKADEDVRMISAEAPVVFARACEMFILELTLRSWNHTEENKRRTLQKNDIAAAVTRTDIFDFLVDIVPR
For B1, the binding result is recorded as “binds”.
